No constants are given. Whether binding was seen depends on the method and setting. Binding can be weak; no strength is given.
Molecular target: human PAR4 on isolated human platelets (human)
Experiment: flow cytometry on isolated human platelets

binding: binds
B1: 5A.RC3 (antibody, IgG2a, V domains shown)
VH: QVQLVESGGGVVQPGRSLRLSCAASGFTLSNYGMHWVRQAPGKGLEWVSVIWYDGSNKHYADSVKGRFTISRDNSKNTLYLQMNSLRAEDTAVYYCARESIVEVLPPFDYWGQGTLVTVSS
VL: KIVLTQSPGTLSLSPGERVTLSCRASQRVRNNYLAWFQQKPGQAPRLFIYGASSRATGIPDRFSGSGSGTDFIFTISRLEPEDFAVYYCQQYGNSYTFGQGTKLEIK

Source: US20210179707A1
